Hit rate of the full screen: of about 220,000 compounds, about 2,400 (1.1%) were called active. The inconclusive results got no clear call from the source; some entries with a clear call stand among them for comparison. The call rests on the fitted dose curve; in most records, active means well fitted inhibition curve with a large enough effect; inconclusive means small, poorly fitted or top-dose-only effect, or effect the other way; inactive means no such curve, though single readings can be large or run the other way. A potency beside an inconclusive call is a rough fit, not a confirmed value.
test: qHTS Multiplex Assay to Identify Dual Action Probes in a Cell Model of Huntington: Aggregate Formation (GFP); conditions: PC12 HttQ103-GFP aggregates, Acumen cytometry, 40 h; activity change, negative = inhibition: at 46.1 µM (top of the series) unless noted; further: nearly all actives have a fitted effect of over 60% in size
Summary of the method: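 Aggregate formation scored by laser-scanning cytometer (488 excitation, 500–530 emission) in lysed PC12 cells expressing Q103-GFP after 100 nM tebufenozide induction; library tested in dose series, with ATPLite reagent added in the multiplex.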
On the % scale 0 is the no-effect control and ±100 the full control effect; potency means the concentration at half of the fitted maximal effect.

Structure (SMILES)	Potency	activity change, negative = inhibition
Cc1ccc2[nH]c(CN3CCC(CO)(CC4CCCCO4)CC3)c(C)c2c1 (centres undefined)	inconclusive: 0.501 µM [inhibitor, partial curve, poor fit]	–
S=c1[nH]nc(-c2cccc(Cl)c2)n1Cc1ccccc1	inconclusive: 35.5 µM [inhibitor, single point]	–
CCOC(=O)CSc1nc(=O)n2cc(C)ccc2n1	–	inactive: 0.818%
Cc1ncoc1C(=O)N1CCCC(C(=O)c2ccc(-c3ccccc3)c(F)c2)C1 (centres undefined)	inconclusive: 35.5 µM [inhibitor, single point]	–
CCOc1ccc(-n2nnc3c(=O)n(CC(=O)c4ccccc4)cnc32)cc1	–	inactive: -18.4%
O=C(Nc1nnc(-c2cccs2)o1)c1cc(-c2ccccc2)nc2ccccc12	inconclusive: 10 µM [inhibitor, partial curve]	–
COc1ccccc1NC(=O)C(C)Sc1nnnn1C (centres undefined)	–	inactive: 21.7%
CC1CCCN(S(=O)(=O)c2ccc(NC(=O)Cn3nnc(-c4ccccc4F)n3)cc2)C1 (centres undefined)	inconclusive: 35.5 µM [inhibitor, partial curve]	–
CCN(C1=NS(=O)(=O)c2ccccc21)N(CC)S(=O)(=O)c1ccc(C)cc1	inconclusive: 20 µM [inhibitor, partial curve]	–
COc1ccc2[nH]c(=O)c(CN(CC3CCCO3)C(=O)Nc3ccc(F)cc3)cc2c1 (centres undefined)	active: 11.2 µM	–
COc1ccc(C2C(C#N)=C(N)Oc3n[nH]c(-c4ccccn4)c32)c(OC)c1OC (centres undefined)	inconclusive: 5.62 µM [activator, single point]	–
CC(C)Cn1c(=O)c(C(=O)Nc2ccccc2S(N)(=O)=O)c(O)c2ccccc21	inconclusive: 35.5 µM [inhibitor, single point]	–
Cc1ccc2c(c1)nnn2C1CCN(CC(=O)N(c2ccccc2)c2ccccc2)CC1	–	inactive: -13.5% [at 9.22 µM]
Cc1ccc(NC(=S)NCCC(c2ccccc2)c2ccccc2)c(C)c1	active: 12.6 µM	–
C=CCc1ccc(OCC(O)COc2ccc(CC=C)cc2OC)c(OC)c1	inconclusive: 22.4 µM [activator, partial curve]	–
O=C(O)c1ccc(N/N=C/C=C/c2ccccc2[N+](=O)[O-])cc1	inconclusive: 6.31 µM [activator, full curve, poor fit]	–
CCOc1ccc(N2C(=O)CC(Sc3nnnn3-c3ccccc3)C2=O)cc1 (centres undefined)	inconclusive: 31.6 µM [inhibitor, single point]	–
COCc1cc(S(=O)c2ccc(Cl)cc2)nc(C)n1 (centres undefined)	–	inactive: 10.8% [at 9.22 µM]
COc1ccc(NS(=O)(=O)c2cccc(-c3n[nH]c(=S)n3Cc3ccccc3)c2)cc1	–	inactive: -8.4%

A draw from above in order of molecular weight, low to high:
Structure (SMILES)	Potency	activity change, negative = inhibition
CCOC(=O)CSc1nc(=O)n2cc(C)ccc2n1	–	inactive: 0.818%
COc1ccccc1NC(=O)C(C)Sc1nnnn1C (centres undefined)	–	inactive: 21.7%
C=CCc1ccc(OCC(O)COc2ccc(CC=C)cc2OC)c(OC)c1	inconclusive: 22.4 µM [activator, partial curve]	–
Cc1ccc2c(c1)nnn2C1CCN(CC(=O)N(c2ccccc2)c2ccccc2)CC1	–	inactive: -13.5% [at 9.22 µM]

From PubChem BioAssay AID1688 (National Center for Advancing Translational Sciences (NCATS), 2009)
